Results: article PMC8447793

Target: Raf-1 Ras-binding domain agarose beads (Ras Assay Reagent), P04049
Experiment: pull-down; Raf-1 RBD agarose beads (20 µl) mixed with 250 µg clarified lysate of transfected ST88-14 cells in magnesium-containing lysis buffer (25 mM HEPES pH 7.5, 150 mM NaCl, 10 mM MgCl2, 1 mM EDTA, 1% Igepal CA-630, 10% glycerol); bound proteins detected by blot for Myc or HA tag; for Myc-H-Ras, cells with or without doxycycline-induced DN R-Ras or DN H-Ras; only the target purified
Conditions: remark: other sources report otherwise

B1: Myc-tagged wild-type R-Ras2, P62070 1-204 (protein)
chain: MAAAGWRDGSGQEKYRLVVVGGGGVGKSALTIQFIQSYFVTDYDPTIEDSYTKQCVIDDRAARLDILDTAGQEEFGAMREQYMRTGEGFLLVFSVTDRGSFEEIYKFQRQILRVKDRDEFPMILIGNKADLDHQRQVTQEEGQQLARQLKVTYMEASAKIRMNVDQAFHELVRVIRKFQEQECPPSPEPTRKEKDKKGCHCVIF
  binding: binds

No constants are given. Whether binding was seen depends on the method and setting. In cells and extracts the contact can be indirect. Binding calls can cover weak binding; strength is not graded here. Where a sequence is shown, tags or fusion partners need not be part of it.
